Reference: PMC10192437
No constants are given. Whether binding was seen depends on the method and setting. In cells and extracts the contact can be indirect. Some entries that bind do so weakly or less than the wild type.

T1: mesoderm-specific transcript (MEST) (UniProt Q5EB52)
T1 sequence: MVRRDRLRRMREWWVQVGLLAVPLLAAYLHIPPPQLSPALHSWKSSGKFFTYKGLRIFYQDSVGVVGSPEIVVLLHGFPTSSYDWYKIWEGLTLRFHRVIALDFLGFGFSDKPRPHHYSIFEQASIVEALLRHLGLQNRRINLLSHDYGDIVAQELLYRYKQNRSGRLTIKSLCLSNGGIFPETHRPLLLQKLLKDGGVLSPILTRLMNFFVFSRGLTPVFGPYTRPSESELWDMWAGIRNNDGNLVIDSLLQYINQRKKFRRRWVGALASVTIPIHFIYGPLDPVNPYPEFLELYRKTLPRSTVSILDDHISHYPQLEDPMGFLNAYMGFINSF

T2: wild-type MEST (MEST-expressing plasmid) (UniProt Q5EB52)
T2 sequence: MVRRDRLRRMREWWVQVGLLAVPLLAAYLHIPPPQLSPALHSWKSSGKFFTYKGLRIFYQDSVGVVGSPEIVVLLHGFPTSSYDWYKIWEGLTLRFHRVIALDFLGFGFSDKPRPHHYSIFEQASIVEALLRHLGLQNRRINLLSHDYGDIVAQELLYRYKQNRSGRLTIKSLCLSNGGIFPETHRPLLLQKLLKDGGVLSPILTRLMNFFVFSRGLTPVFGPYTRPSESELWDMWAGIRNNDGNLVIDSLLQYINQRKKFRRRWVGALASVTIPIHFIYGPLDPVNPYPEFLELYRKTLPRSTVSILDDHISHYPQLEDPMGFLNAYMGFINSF


Key:
[1] = molecular target: T1, mesoderm-specific transcript (MEST); assay: co-IP; ESCC cell lysates, protein A/G Sepharose beads, Western blot; also done in the absence or presence of inhibitors (G699-0288 markedly reduced the interaction, Fig. 7g)
[2] = molecular target: T2, wild-type MEST (MEST-expressing plasmid); assay: co-IP; MEST and PURA plasmids (wild type or mutant) cotransfected into ESCC cells (KYSE150-Luc)

Binder	binding [1]	binding [2]
purine rich element binding protein A (PURA) (protein, UniProt Q00577 1-322) MADRDSGSEQGGAALGSGGSLGHPGSGSGSGGGGGGGGGGGGSGGGGGGAPGGLQHETQELASKRVDIQNKRFYLDVKQNAKGRFLKIAEVGAGGNKSRLTLSMSVAVEFRDYLGDFIEHYAQLGPSQPPDLAQAQDEPRRALKSEFLVRENRKYYMDLKENQRGRFLRIRQTVNRGPGLGSTQGQTIALPAQGLIEFRDALAKLIDDYGVEEEPAELPEGTSLTVDNKRFFFDVGSNKYGVFMRVSEVKPTYRNSITVPYKVWAKFGHTFCKYSEEMKKIQEKQREKRAACEQLHQQQQQQQEETAAATLLLQGEEEGEED	binds	
wild-type (WT) PURA (PURA-expressing plasmid) (protein, UniProt Q00577 1-322) MADRDSGSEQGGAALGSGGSLGHPGSGSGSGGGGGGGGGGGGSGGGGGGAPGGLQHETQELASKRVDIQNKRFYLDVKQNAKGRFLKIAEVGAGGNKSRLTLSMSVAVEFRDYLGDFIEHYAQLGPSQPPDLAQAQDEPRRALKSEFLVRENRKYYMDLKENQRGRFLRIRQTVNRGPGLGSTQGQTIALPAQGLIEFRDALAKLIDDYGVEEEPAELPEGTSLTVDNKRFFFDVGSNKYGVFMRVSEVKPTYRNSITVPYKVWAKFGHTFCKYSEEMKKIQEKQREKRAACEQLHQQQQQQQEETAAATLLLQGEEEGEED		binds
